For the assay, the target named is TA*p63α (UniProt Q9H3D4). Put plainly: SEC; in vitro translated protein in rabbit reticulocyte lysate on Superose 6 3.2/300, 50 mM sodium phosphate pH 7.8, 100 mM NaCl, 4 °C; fractions analysed by western blot. For orientation: Size exclusion chromatography separates by hydrodynamic size, large species first.

These are yes or no findings as the source states them, for the method shown. Some results given as binding are weak or reduced against the parent protein; the word gives no strength.

B1: TA*p63α (protein, UniProt Q9H3D4-1 1-680)
chain: MNFETSRCATLQYCPDPYIQRFVETPAHFSWKESYYRSTMSQSTQTNEFLSPEVFQHIWDFLEQPICSVQPIDLNFVDEPSEDGATNKIEISMDCIRMQDSDLSDPMWPQYTNLGLLNSMDQQIQNGSSSTSPYNTDHAQNSVTAPSPYAQPSSTFDALSPSPAIPSNTDYPGPHSFDVSFQQSSTAKSATWTYSTELKKLYCQIAKTCPIQIKVMTPPPQGAVIRAMPVYKKAEHVTEVVKRCPNHELSREFNEGQIAPPSHLIRVEGNSHAQYVEDPITGRQSVLVPYEPPQVGTEFTTVLYNFMCNSSCVGGMNRRPILIIVTLETRDGQVLGRRCFEARICACPGRDRKADEDSIRKQQVSDSTKNGDGTKRPFRQNTHGIQMTSIKKRRSPDDELLYLPVRGRETYEMLLKIKESLELMQYLPQHTIETYRQQQQQQHQHLLQKQTSIQSPSSYGNSSPPLNKMNSMNKLPSVSQLINPQQRNALTPTTIPDGMGANIPMMGTHMPMAGDMNGLSPTQALPPPLSMPSTSHCTPPPPYPTDCSIVSFLARLGCSSCLDYFTTQGLTTIYQIEHYSMDDLASLKIPEQFRHAIWKGILDHRQLHEFSSPSHLLRTPSSASTVSVGSSETRGERVIDAVRFTLRQTISFPPRDEWNDFNFDMDARRNKQQRIKEEGE
Turning to B1, the binding result is “binds”.

For the origin of these results see publication PMC6746776, “TA*p63 and GTAp63 achieve tighter transcriptional regulation in quality control by converting an inhibitory element into an additional transactivation domain” (Cell Death & Disease, 2019).
